Values of other authors, collected in patent publication US20230212171A1, “ALLOSTERIC EGFR INHIBITORS AND METHODS OF USE THEREOF” (Dana-Farber Cancer Institute, Inc., priority 2020, published 2023).
For at least one compound, name, drawing or mass did not settle the structure.

System: NSCLC that have developed resistance to gefitinib or erlotinib
Settings: patients with NSCLC that have developed resistance to gefitinib or erlotinib; cited from earlier work

## CN(C)C/C=C/C(=O)Nc1cc2c(Nc3ccc(F)c(Cl)c3)ncnc2cc1O[C@H]1CCOC1 [afatinib]
  RR (response rate): less than 10%
